Measurements reported in PubChem BioAssay AID743454 (Peter MacCallum Cancer Centre, 2014)
Aim: 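Knock-downs lowering viability or raising caspase 3/7 activity in vorinostat-treated resistant cells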 (primary screen). Cell system: human HCT116-VR colon cancer cells, selected for vorinostat resistance. Reagent: siRNA pool against human genes, 40 nM siRNA pool. Timing: vorinostat for 24 h, read-out about 72 h after transfection. Conditions: vorinostat at 2.5 µM final. Measurement: 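Two measures, CellTiter-Fluor viability and luminescent caspase 3/7 activity, each as fold change against same-plate mock wells, mean of duplicates, then screen-wide robust z-score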. Scale: viability robust z-score: higher = more viable cells than screen typical; caspase robust z-score: higher = more caspase 3/7 activity than screen typical. Active means: 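a knock-down is a hit when classed RV1 or RV2 for lowered viability, or CA1 or CA2 for caspase activation; those lethal without drug were dropped; hits were retested singly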.
The whole screen tested about 18,000 reagents; below is an unselected part. Of all reagents, 450 (2.5%) were called active. 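Single biological run; no consistent viability z cut-off exists, so the class columns, not z-scores, define the calls.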 Unmarked entries are inactive.

What is on record for AMIGO1?
viability hit class: no change; caspase hit class: no change; viability robust z-score: -0.22; caspase robust z-score: 2.88

How did the screen score COL8A1?
viability hit class: no change; caspase hit class: no change; viability robust z-score: 0.82; caspase robust z-score: 0.19

For POLR3C, how do the results read?
viability hit class: no change; caspase hit class: no change; viability robust z-score: 1.35; caspase robust z-score: 0.04

What did the screen give for CLSTN3?
viability hit class: no change; caspase hit class: no change; viability robust z-score: -0.42; caspase robust z-score: 1.24

For WASF2, how do the results read?
viability hit class: no change; caspase hit class: no change; viability robust z-score: 0.08; caspase robust z-score: -0.22

For DLGAP5, what does the deposit list?
viability hit class: no change; caspase hit class: no change; viability robust z-score: 0.23; caspase robust z-score: 0.03

Which result is listed for WEE1?
viability hit class: no change; caspase hit class: no change; viability robust z-score: -1.06; caspase robust z-score: 0.68

Which result is listed for RTCA?
viability hit class: no change; caspase hit class: no change; viability robust z-score: -0.18; caspase robust z-score: 1.22

Which result is listed for DEPDC4?
viability hit class: no change; caspase hit class: no change; viability robust z-score: 0.74; caspase robust z-score: 1.94

What is on record for ZNF772?
viability hit class: no change; caspase hit class: no change; viability robust z-score: -0.87; caspase robust z-score: -0.2

For CIMIP6, how do the results read?
viability hit class: no change; caspase hit class: no change; viability robust z-score: 0.32; caspase robust z-score: 1.36

Which result is listed for STK10?
viability hit class: no change; caspase hit class: no change; viability robust z-score: 0.34; caspase robust z-score: 0.66

How did the screen score CPEB2?
viability hit class: no change; caspase hit class: no change; viability robust z-score: -0.82; caspase robust z-score: -0.01

With NPAS1, how do the results read?
viability hit class: no change; caspase hit class: no change; viability robust z-score: -0.3; caspase robust z-score: 1.48

For THTPA, what was measured?
viability hit class: no change; caspase hit class: no change; viability robust z-score: -0.29; caspase robust z-score: -1.52

What did the screen give for FCHSD1?
viability hit class: no change; caspase hit class: no change; viability robust z-score: 0.84; caspase robust z-score: 3.97

With RGL1, what was measured?
viability hit class: no change; caspase hit class: no change; viability robust z-score: 0.2; caspase robust z-score: -0.66

For ARHGAP20, how do the results read?
viability hit class: no change; caspase hit class: no change; viability robust z-score: -1.66; caspase robust z-score: 2.88

With AFAP1, what does the deposit list?
viability hit class: no change; caspase hit class: no change; viability robust z-score: -0.06; caspase robust z-score: -0.91

With RPL15, what was measured?
viability hit class: no change; caspase hit class: no change; viability robust z-score: -3.7; caspase robust z-score: 0.08

What did the screen give for PDGFD?
viability hit class: no change; caspase hit class: no change; viability robust z-score: 1.5; caspase robust z-score: 0.44

What is on record for SLC22A8?
viability hit class: no change; caspase hit class: no change; viability robust z-score: 1.12; caspase robust z-score: 2.49

With TFAP2E, how do the results read?
viability hit class: no change; caspase hit class: no change; viability robust z-score: -0.72; caspase robust z-score: -0.8

What is on record for SNRPD1?
viability hit class: no change; caspase hit class: no change; viability robust z-score: -3.2; caspase robust z-score: 0.7

With GPAT3, what was measured?
viability hit class: no change; caspase hit class: no change; viability robust z-score: 1.08; caspase robust z-score: -0.41

Which result is listed for YWHAZ?
viability hit class: no change; caspase hit class: no change; viability robust z-score: -1.98; caspase robust z-score: -0.43

Which result is listed for ZCCHC3?
viability hit class: no change; caspase hit class: no change; viability robust z-score: -0.2; caspase robust z-score: -0.09

Quoted from above, 2 entries:
ARHGAP20: viability hit class = no change; caspase hit class = no change; viability robust z-score = -1.66; caspase robust z-score = 2.88
AFAP1: viability hit class = no change; caspase hit class = no change; viability robust z-score = -0.06; caspase robust z-score = -0.91
